Taken from: PubChem BioAssay AID1224828 (NIAID, 2016)
Here is a random part of about 17,000 deposited reagents. 762 of them (4.5%) count as active. 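Active calls include both raised and lowered p65 entry, mostly lowered; wells with fewer than 50 cells lack a z-score.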 Raw values are not corrected between plates.

- Assay: 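Knock-downs that increase or decrease LPS-induced p65 nuclear translocation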 (primary screen)
- System: mouse RAW264.7 G9 macrophage reporter cells (GFP-p65, Tnf promoter-mCherry)
- Reagents: siRNA pool against mouse genes, 100 nM
- Time to read-out: 2 days siRNA transfection, then 40 min LPS before fixation
- Challenge: LPS (Salmonella minnesota R595) at 10 ng/ml
- Detection: 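Imaged p65 nuclear translocation ratio, normalised to the plate median, converted to robust z-scores and averaged across two replicates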
- Reading the numbers: p65 translocation robust z-score: higher = more nuclear NF-kappaB p65 after LPS than the plate median; nuclear/cytoplasmic p65 ratio: higher = more nuclear NF-kappaB p65
- Call rule: 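Active if robust z is above 3.3 (negative regulators) or below -1.56, the Tlr4 control median (positive regulators); activity score 50 or more; control wells not called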
- Meaning of the calls: active = hit (p65 shift raised or lowered); inactive = no clear change

| gene | PubChem SID | p65 translocation robust z-score | nuclear/cytoplasmic p65 ratio, rep 1 | nuclear/cytoplasmic p65 ratio, rep 2 | low cell count flag | Call |
| --- | --- | --- | --- | --- | --- | --- |
| 1700018B24Rik (GeneID 66332) | SID315472367 | 0.35 | 1.36 | 1.46 | enough cells to score | inactive |
| Setmar (GeneID 74729) | SID315475031 | -0.37 | 1.47 | 1.53 | enough cells to score | inactive |
| Pabpc2 (GeneID 18459) | SID315468377 | -0.18 | 1.43 | 1.21 | enough cells to score | inactive |
| Rnf183 (GeneID 76072) | SID315475237 | – | 1.16 | 1.26 | fewer than 50 cells per well; well left out of scoring | inactive |
| Rmp24 (GeneID 68046) | SID315473386 | 1.18 | 1.56 | 1.33 | enough cells to score | inactive |
| Ca11 (GeneID 12348) | SID315465756 | -1.38 | 1.42 | 1.52 | enough cells to score | inactive |
| Or8j3c (GeneID 259082) | SID315480679 | 0.01 | 1.7 | 1.54 | enough cells to score | inactive |
| Slc25a29 (GeneID 214663) | SID315477879 | 0.97 | 1.53 | 1.35 | enough cells to score | inactive |
| Slc5a2 (GeneID 246787) | SID315479897 | -0.34 | 1.47 | 1.47 | enough cells to score | inactive |
| Nfatc4 (GeneID 73181) | SID315474689 | 1.58 | 1.69 | 1.5 | enough cells to score | inactive |
| Slc25a36 (GeneID 192287) | SID315477413 | 0.29 | 1.46 | 1.57 | enough cells to score | inactive |
| Pnrc1 (GeneID 108767) | SID315476737 | 0.75 | 1.67 | 1.44 | enough cells to score | inactive |
| Ugt2b5 (GeneID 22238) | SID315469929 | 0.04 | 1.42 | 1.23 | enough cells to score | inactive |
| Anxa11 (GeneID 11744) | SID315465420 | -0.19 | 1.59 | 1.59 | enough cells to score | inactive |
| Krtap13-20 (GeneID 117172) | SID315477090 | – | 1.59 | 1.39 | fewer than 50 cells per well; well left out of scoring | inactive |
| Dynlt2a1 (GeneID 21647) | SID315469639 | 1.43 | 1.52 | 1.37 | enough cells to score | inactive |
| Eed (GeneID 13626) | SID315466442 | -0.98 | 1.35 | 1.22 | enough cells to score | inactive |
| Actr1a (GeneID 54130) | SID315471153 | -0.46 | 1.58 | 1.52 | enough cells to score | inactive |
| Or6c1 (GeneID 258934) | SID315480555 | – | 1.36 | 0 | fewer than 50 cells per well; well left out of scoring | inactive |
| Clcn4 (GeneID 12727) | SID315465988 | 1.62 | 1.8 | 2.09 | enough cells to score | inactive |
| Or7g28 (GeneID 258279) | SID315479973 | – | 1.24 | 1.35 | fewer than 50 cells per well; well left out of scoring | inactive |
| Rsl24d1 (GeneID 225215) | SID315478406 | 0.76 | 1.54 | 2.14 | enough cells to score | inactive |
| Smtn (GeneID 29856) | SID315470714 | 0.6 | 1.67 | 1.6 | enough cells to score | inactive |
| Necab2 (GeneID 117148) | SID315477083 | – | 1.33 | 1.33 | fewer than 50 cells per well; well left out of scoring | inactive |
| Ephb1 (GeneID 270190) | SID315480928 | – | 1.43 | 1.08 | fewer than 50 cells per well; well left out of scoring | inactive |
| Gdf10 (GeneID 14560) | SID315466869 | 0.7 | 1.46 | 1.52 | enough cells to score | inactive |
| Cst5 (GeneID 58214) | SID315471877 | -0.47 | 1.63 | 1.56 | enough cells to score | inactive |
| Mlc1 (GeneID 170790) | SID315477244 | 1.35 | 1.6 | 1.53 | enough cells to score | inactive |
| 4930447C04Rik (GeneID 75801) | SID315475206 | 1.22 | 1.2 | 1.45 | enough cells to score | inactive |
| Fbxl6 (GeneID 30840) | SID315470755 | -1.46 | 1.25 | 1.19 | enough cells to score | inactive |
| Wipf1 (GeneID 215280) | SID315477920 | -0.26 | 1.54 | 1.51 | enough cells to score | inactive |
| Bpifb9a (GeneID 71425) | SID315474234 | -1.85 | 1.12 | 1.22 | enough cells to score | active |
| Prss33 (GeneID 353130) | SID315481695 | – | 1.24 | 1.08 | fewer than 50 cells per well; well left out of scoring | inactive |
| Ncor2 (GeneID 20602) | SID315469340 | -1.77 | 1.22 | 1.11 | enough cells to score | active |
| Prcp (GeneID 72461) | SID315474553 | 0.12 | 1.72 | 1.55 | enough cells to score | inactive |
| Islr2 (GeneID 320563) | SID315481341 | 1.85 | 1.67 | 2.16 | enough cells to score | inactive |
| Lhx9 (GeneID 16876) | SID315467750 | 1.47 | 1.93 | 1.78 | enough cells to score | inactive |
| Usp46 (GeneID 69727) | SID315473882 | -0.2 | 1.55 | 1.61 | enough cells to score | inactive |
| Rpa1 (GeneID 68275) | SID315473487 | 2.65 | 1.75 | 1.53 | enough cells to score | inactive |
| H3c15 (GeneID 97114) | SID315476095 | 0.06 | 0 | 1.57 | enough cells to score | inactive |
| Col7a1 (GeneID 12836) | SID315466065 | 0.81 | 1.61 | 1.45 | enough cells to score | inactive |
| Cacna1c (GeneID 12288) | SID315465708 | 0.09 | 1.63 | 1.63 | enough cells to score | inactive |
| Kctd2 (GeneID 70382) | SID315474034 | -1.12 | 1.36 | 1.31 | enough cells to score | inactive |
| 9330169L03Rik (GeneID 77226) | SID315475455 | 0.68 | 1.44 | 1.64 | enough cells to score | inactive |
| Arhgap35 (GeneID 232906) | SID315479019 | 2.62 | 1.69 | 2.01 | enough cells to score | inactive |
| Psmb7 (GeneID 19177) | SID315468743 | 0.31 | 1.54 | 1.14 | enough cells to score | inactive |
| Naa10 (GeneID 56292) | SID315471436 | -1.14 | 1.31 | 1.48 | enough cells to score | inactive |
| Nkain3 (GeneID 269513) | SID315480859 | 0.6 | 1.63 | 1.36 | enough cells to score | inactive |
| Oog1 (GeneID 193322) | SID315477434 | 0.55 | 1.55 | 1.27 | enough cells to score | inactive |
| Slc35b3 (GeneID 108652) | SID315476714 | – | 0 | 1.03 | fewer than 50 cells per well; well left out of scoring | inactive |
| Slamf9 (GeneID 98365) | SID315476128 | 1.3 | 1.64 | 1.35 | enough cells to score | inactive |
| Ppil1 (GeneID 68816) | SID315473643 | 0.97 | 1.61 | 1.56 | enough cells to score | inactive |
| Gga3 (GeneID 260302) | SID315480733 | 1.55 | 1.79 | 1.7 | enough cells to score | inactive |
| Gbp9 (GeneID 236573) | SID315479303 | – | 1.22 | 1.15 | fewer than 50 cells per well; well left out of scoring | inactive |
| Slc25a30 (GeneID 67554) | SID315473094 | 1.66 | 1.51 | 1.45 | enough cells to score | inactive |
| Gpr18 (GeneID 110168) | SID315476879 | -0.77 | 1.38 | 1.49 | enough cells to score | inactive |
| Slc1a6 (GeneID 20513) | SID315469287 | – | 1.61 | 1.48 | fewer than 50 cells per well; well left out of scoring | inactive |
| Pdgfa (GeneID 18590) | SID315468443 | -0.44 | 1.4 | 1.35 | enough cells to score | inactive |
| Skint11 (GeneID 230623) | SID315478799 | -0.39 | 1.35 | 1.45 | enough cells to score | inactive |

Laid out differently: entries from further up
Kctd2 (GeneID 70382) [SID315474034]
- p65 translocation robust z-score: -1.12
- nuclear/cytoplasmic p65 ratio, rep 1: 1.36
- nuclear/cytoplasmic p65 ratio, rep 2: 1.31
- low cell count flag: enough cells to score
- Call: inactive

9330169L03Rik (GeneID 77226) [SID315475455]
- p65 translocation robust z-score: 0.68
- nuclear/cytoplasmic p65 ratio, rep 1: 1.44
- nuclear/cytoplasmic p65 ratio, rep 2: 1.64
- low cell count flag: enough cells to score
- Call: inactive

Arhgap35 (GeneID 232906) [SID315479019]
- p65 translocation robust z-score: 2.62
- nuclear/cytoplasmic p65 ratio, rep 1: 1.69
- nuclear/cytoplasmic p65 ratio, rep 2: 2.01
- low cell count flag: enough cells to score
- Call: inactive

Psmb7 (GeneID 19177) [SID315468743]
- p65 translocation robust z-score: 0.31
- nuclear/cytoplasmic p65 ratio, rep 1: 1.54
- nuclear/cytoplasmic p65 ratio, rep 2: 1.14
- low cell count flag: enough cells to score
- Call: inactive

Naa10 (GeneID 56292) [SID315471436]
- p65 translocation robust z-score: -1.14
- nuclear/cytoplasmic p65 ratio, rep 1: 1.31
- nuclear/cytoplasmic p65 ratio, rep 2: 1.48
- low cell count flag: enough cells to score
- Call: inactive

Nkain3 (GeneID 269513) [SID315480859]
- p65 translocation robust z-score: 0.6
- nuclear/cytoplasmic p65 ratio, rep 1: 1.63
- nuclear/cytoplasmic p65 ratio, rep 2: 1.36
- low cell count flag: enough cells to score
- Call: inactive
